The source of these data is publication PMC12638379, “An innovative approach to development of new pyrazolylquinolin-2-one hybrids as dual EGFR and BRAF^V600E inhibitors” (Molecular Diversity, 2025).

Like-named read-outs stand apart in the source and are kept apart here.

Broadly, the IC50 is the midpoint of a concentration-inhibition curve.

The assay deals with leukemia (MOLT-4) cell line. As to the kind of experiment: MTT antiproliferative assay, MOLT-4. Format: cell-based, human. How it is done: […]. […] See Appendix B.
After 24 h of culture incubation and supernatants discarded.
A general note: Formazan colour is commonly taken as a measure of viable cells.

`CN[C@@H]1C[C@H]2O[C@@](C)([C@@H]1OC)n1c3ccccc3c3c4c(c5c6ccccc6n2c5c31)C(=O)NC4` [Staurosporine, reference compound]: the half-inhibitory concentration (IC50) runs as follows: (Homo sapiens, MOLT-4, read-out: Antiproliferative activity IC50 ± SEM, MOLT-4, MTT) 4.94 ± 0.19 µM; (read-out: Antiproliferative activity IC50 ± SEM, MOLT-4, MTT) 5.86 ± 0.23 µM.
